From US12377077B2, “Methods and formulations to treat mitochondrial dysfunction” (The Board of Trustees of the Leland Stanford Junior …, priority 2018, dated 2025)
Some entries share one result that the patent states for a list of compounds. At least one structure is not confirmed: it was looked up by name or label, or the drawing left a doubt. Some compounds share one range, which may span the group rather than tell each member.

Each compound was assayed on SURF1-deficient fibroblasts (assay: Cell viability by Calcein AM in mitochondrial stressor media). Conditions: vs vehicle DMSO, FIG. 2A.
Format: cell-based, human
Experimental: Fibroblasts previously derived from four patients with primary mitochondrial disease (Surf1, Complex I, Cox10, Polg), three patients with NGLY1 deficiency and four normal controls were used for the study. All samples were obtained with informed consent and approved by the Stanford IRB. Fibroblasts were maintained in DMEM medium containing 8.3 mM glucose and supplemented with 10% fetal bovine serum (FBS)(Fisher Scientific), 1% Penicillin-Streptomycin (10,000 U/mL)(Life Technologies), 1% glutaMAX (Life Technologies), 1% uridine (5 mg/ml) and 1% pyruvate (11 mg/ml) at 37° C., 5% CO2. For the screening of various compounds, 15×10^3 cells/500 ul media were seeded in quadruplets on 24 well microtiter plates. The following day, the medium was removed, wells washed with PBS and replaced with a mitochondrial stressor media containing DMEM, 1% Penicillin-Streptomycin (10,000 U/mL)(Life Technologies), 10% FCS (Fisher Scientific), 1 mM Galactose (Sigma Aldrich), and 25 μM sodium azide with or without the following compounds: 1 mM AICAR (Medchem Express), 1 mM Metformin (Sigma Aldrich), 100 μM PT1 (Santa Cruz Biotechnology), 100 μ[…] Express). Following treatment with the various compounds, tissue cultures were analyzed for growth, oxygen consumption rate, and ATP levels. Methods: Cell growth was measured by a fluorometric method using Calcein AM (Anaspec). Mitochondrial stressor media was removed, wells washed with PBS and then incubated with 500 ul/well of 800 nM Calcein AM in PBS for 30 min at 37 C, 5% CO2. Cell viability was measured by values obtained using a 485 nm excitation with the Flouroskan Ascent Microplate Fluorometer (Thermo Scientific).

Compound	increase in viability compared to untreated cells
N#Cc1c(O)c2c(-c3ccc(-c4ccccc4O)cc3)csc2[nH]c1=O [Compound A-769662]	35-55%
Cc1cc(-c2ccc(C=C3SC(=S)N(c4ccc(Cl)c(C(=O)O)c4)C3=O)o2)c([N+](=O)[O-])cc1C [PT1]	35-55%
Cc1ccc(OCCSc2ncccn2)c(Br)c1 [ZLN024]	35-55%
